{"sequences": {"note": "Amino acid sequences for entries named in this document (tags omitted).", "UniProt P34972, whole entry": "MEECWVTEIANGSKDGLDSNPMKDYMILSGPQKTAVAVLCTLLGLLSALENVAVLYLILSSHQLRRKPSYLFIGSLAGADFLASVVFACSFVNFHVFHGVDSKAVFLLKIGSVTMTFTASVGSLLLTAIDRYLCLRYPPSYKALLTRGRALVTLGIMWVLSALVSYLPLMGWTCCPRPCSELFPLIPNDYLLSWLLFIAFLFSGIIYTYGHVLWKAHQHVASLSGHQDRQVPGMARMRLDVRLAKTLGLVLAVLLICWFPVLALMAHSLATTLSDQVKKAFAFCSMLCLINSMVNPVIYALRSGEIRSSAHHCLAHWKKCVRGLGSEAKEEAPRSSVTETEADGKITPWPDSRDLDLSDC"}, "source": "patent US7825151B2", "about": "“Hexahydro-cyclooctyl pyrazole cannabinoid modulators” (priority 2005, dated 2010)", "biological_target": "T1, CB2 receptor (Homo sapiens, UniProt P34972)", "T1 construct": "expressed in transfected cells; host or cells: SK-N-MC cells, stably transfected with pcDNA3 CB-2 (human)", "test": "Binding assay for CB2 ([3H]-CP-55,940 displacement, SK-N-MC membranes)", "details": "footnote 5: average value; concentration not given", "experimental": "The human CB1 and CB2 receptors were stably expressed in SK-N-MC cells transfected with pcDNA3 CB-1 (human) or pcDNA3 CB-2 (human). The cells were grown in T-180 cell culture flasks under standard cell culture conditions at 37° C. in a 5% CO2 atmosphere. The cells were harvested by trysinization and homogenized in a homogenization buffer (10 mM Tris, 0.2 mM MgCl2, 5 mM KCl, with protease inhibitors aprotinin, leupeptin, pepstatin A and bacitracin) and centrifuged (2000 g). The supernatant was then centrifuged in 2M sucrose (31,300 g) to produce a semi-purified membrane pellet. The pellet was resuspended in homogenization and stored at −80° C.\nOn the day of the assay, the pellet was thawed on ice and diluted in assay buffer (50 mM Tris-HCl, 5 mM MgCl2, 2.5 mM EDTA, 0.5 mg/mL fatty acid free bovine serum albumin, pH 7.5). […] Non-specific binding was measured in wells containing WIN 55,212 (10 uM). […] The Unifilter plate was dried, scintillation cocktail was added to each well and the counts representing binding were quantitated in a TopCount scintillation counter.\nFor compounds tested, an IC50 binding value was obtained from percent inhibition studies in which various test concentrations were used. The binding value was calculated by linear regression. […]", "note": "The name of at least one read-out is uncertain."}
{"smiles": "O=C(NN1CCCCC1)c1nn(-c2ccc(Cl)cc2Cl)c2c1CCCCC/C2=C\\c1ccc(F)cc1", "note": "[Cpd 19, (9E)-1-(2,4-dichloro-phenyl)-9-(4-fluoro-benzylidene)-4,5,6,7,8,9-hexahydro-1H-cyclooctapyrazole-3-carboxylic acid piperidin-1-ylamide]", "values": [{"measurement": "CB2 receptor binding percent inhibition", "value": "^(5)33%"}]}
